Laboratory results taken from publication doi:10.1101/2022.03.04.482956.

Chains of the proteins cited; added tags and fusions are not shown. Lines headed by an entry give the natural chain unless they say otherwise; changes in a name come on top.
UniProt Q86YI8: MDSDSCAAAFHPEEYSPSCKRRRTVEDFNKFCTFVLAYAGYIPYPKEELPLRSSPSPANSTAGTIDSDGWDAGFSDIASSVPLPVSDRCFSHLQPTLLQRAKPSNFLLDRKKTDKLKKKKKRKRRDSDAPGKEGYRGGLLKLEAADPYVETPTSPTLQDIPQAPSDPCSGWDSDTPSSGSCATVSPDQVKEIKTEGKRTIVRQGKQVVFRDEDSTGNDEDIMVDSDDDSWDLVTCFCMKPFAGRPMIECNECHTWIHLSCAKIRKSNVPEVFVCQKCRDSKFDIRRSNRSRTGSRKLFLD
UniProt Q9UQE7: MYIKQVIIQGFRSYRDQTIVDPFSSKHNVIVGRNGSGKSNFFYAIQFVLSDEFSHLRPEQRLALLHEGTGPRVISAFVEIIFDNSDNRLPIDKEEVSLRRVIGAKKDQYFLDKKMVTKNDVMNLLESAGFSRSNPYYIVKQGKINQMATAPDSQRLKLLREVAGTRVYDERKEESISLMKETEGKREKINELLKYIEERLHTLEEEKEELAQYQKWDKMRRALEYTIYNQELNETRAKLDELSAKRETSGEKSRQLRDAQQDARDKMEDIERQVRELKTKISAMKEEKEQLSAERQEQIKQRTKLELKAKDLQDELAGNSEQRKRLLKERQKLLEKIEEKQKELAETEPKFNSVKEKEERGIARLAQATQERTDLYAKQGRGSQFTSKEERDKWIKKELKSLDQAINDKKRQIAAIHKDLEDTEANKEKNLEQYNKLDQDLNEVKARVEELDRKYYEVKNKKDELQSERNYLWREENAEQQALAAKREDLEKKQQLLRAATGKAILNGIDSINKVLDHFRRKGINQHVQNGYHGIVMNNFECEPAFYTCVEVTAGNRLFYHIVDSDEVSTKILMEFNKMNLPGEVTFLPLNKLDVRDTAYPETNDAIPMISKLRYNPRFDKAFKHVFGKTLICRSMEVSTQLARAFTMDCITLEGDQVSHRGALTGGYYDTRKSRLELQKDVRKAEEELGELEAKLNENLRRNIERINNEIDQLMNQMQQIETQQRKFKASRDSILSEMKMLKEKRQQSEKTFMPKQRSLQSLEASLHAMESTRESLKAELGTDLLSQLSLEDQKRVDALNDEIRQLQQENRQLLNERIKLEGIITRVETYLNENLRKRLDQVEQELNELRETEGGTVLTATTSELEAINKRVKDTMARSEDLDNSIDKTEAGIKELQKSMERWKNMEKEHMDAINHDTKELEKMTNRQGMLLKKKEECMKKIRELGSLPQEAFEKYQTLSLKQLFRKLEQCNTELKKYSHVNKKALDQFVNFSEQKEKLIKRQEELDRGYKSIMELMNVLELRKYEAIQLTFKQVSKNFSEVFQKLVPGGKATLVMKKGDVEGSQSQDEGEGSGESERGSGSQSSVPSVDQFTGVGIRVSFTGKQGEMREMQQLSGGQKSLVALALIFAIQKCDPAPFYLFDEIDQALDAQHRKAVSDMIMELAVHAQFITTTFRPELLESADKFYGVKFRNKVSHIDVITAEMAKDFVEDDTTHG

Tests used:
YFP-PHF13 Δ7ΔPHD [1] = target: YFP-PHF13 Δ7ΔPHD (UniProt Q86YI8); assay: co-IP
YFP-PHF13 Δ7ΔPHD [2] = target: YFP-PHF13 Δ7ΔPHD (UniProt Q86YI8); assay: co-IP; remark: listed apart in the source

SMC3 (endogenous cohesin subunit) (from UniProt Q9UQE7 1-1217)
binding (YFP-PHF13 Δ7ΔPHD [1]): no binding | binding (YFP-PHF13 Δ7ΔPHD [2]): no binding

Read-outs that look alike come from different tables or passages of the source. These are yes or no findings as the source states them, for the method shown. In cells and extracts the contact can be indirect.
